PubChem BioAssay AID504444 (National Center for Advancing Translational Sciences (NCATS), 2011)
Hit rate of the full screen: of about 360,000 compounds, about 7,500 (2.1%) were called active. Inconclusive results, whose numbers are uncertain, are shown with a selection of clear calls. Calls follow the shape of the dose curve; as a rule, active = well fitted inhibition curve with a large enough effect; inconclusive = small, poorly fitted or top-dose-only effect, or effect the other way; inactive = flat fitted curve, though single readings scatter. Where the call is inconclusive, the potency comes from a doubtful curve fit.

Test: Nrf2 qHTS screen for inhibitors; also: nearly all actives have a fitted effect of over 60% in size
Conditions: A549 ARE-Fluc reporter, luciferase luminescence, 18-24 h; series mostly up to 46 µM
Outline: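 In this cell-based qHTS, ARE-driven firefly luciferase in A549 cells reports Nrf2 activity; the luminescent signal after BugLite lysis is the measured value, with a prior CellTiter-Fluor read for cell health.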
Potency is read from the fitted curve at half-maximal effect.

SMILES | Potency
Cc1cc(S(=O)(=O)NC2CCN(Cc3ccccc3)CC2)c(C)cc1Cl | inconclusive: 23.1 µM [falling, single point]
Nc1nc(Nc2cccc(F)c2)nc2ccccc12 | inconclusive: 10.3 µM [activator, partial curve]
O=C(Nc1cc(S(=O)(=O)N2CCOCC2)ccc1N1CCOCC1)c1ccc(S(=O)(=O)N2CCCCC2)cc1 | inconclusive: 29.1 µM [falling, single point]
CC1(C)CC(NNCCC#N)=CC(=[N+]2CCCC2)C1 | inactive
Cc1nc(Nc2ccccc2)sc1C | inactive
CC(C)Cn1c(SCC(=O)N2CCCc3ccccc32)nc2ccccc2c1=O | inconclusive: 32.6 µM [falling, single point]
O=c1ccc(-c2ccc(S(=O)(=O)NCc3cccc(Br)c3)s2)n[nH]1 | inconclusive: 25.9 µM [falling, single point]
CCN(c1cccc(C)c1)S(=O)(=O)c1cc2c(cc1C)n(C)c(=O)c(=O)n2C | inactive
Cc1ccc(-c2csc3nc(-c4ccncc4)[nH]c(=O)c23)cc1 | inconclusive: 5.17 µM [falling, full curve]
COc1ccc(NS(=O)(=O)c2cc(NC(=O)c3cnc(C)cn3)ccc2N2CCCCC2)cc1 | inconclusive: 0.517 µM [falling, full curve, poor fit]
Cn1cccc1-c1nc2ccccc2[nH]1 | inconclusive: 29.1 µM [activator, single point]
O=C(NCCN1CCOCC1)c1cnn2c(-c3ccccc3)cc(-c3ccccc3)nc12 | inconclusive: 20.6 µM [falling, single point]
O=[N+]([O-])c1ccc(C[n+]2ccc(Cc3ccccc3)cc2)cc1 | inconclusive: 7.31 µM [falling, partial curve]
CCOc1cccc2sc(N(CCCN(C)C)C(=O)c3ccc(S(=O)(=O)N(C)Cc4ccccc4)cc3)nc12 | inconclusive: 29.1 µM [falling, single point]
CCN(CC)S(=O)(=O)c1ccc(NC(=O)CCC2CCCCC2)cc1 | inconclusive: 16.4 µM [falling, partial curve, poor fit]
Cn1nc([N+](=O)[O-])nc1Oc1ccc2ccccc2c1 | inconclusive: 0.184 µM [falling, full curve, poor fit]
CCOC(=O)c1c(C)[nH]c(C)c1S(=O)(=O)N1CCN(c2cc(Cl)ccc2C)CC1 | inactive
O=C(CNC(=O)c1cccc(S(=O)(=O)N2CCc3ccccc32)c1)Nc1ccc(F)c(F)c1F | inconclusive: 23.1 µM [activator, single point]

Fetched by compound from the entries so far (2):
SMILES | Potency
O=C(CNC(=O)c1cccc(S(=O)(=O)N2CCc3ccccc32)c1)Nc1ccc(F)c(F)c1F | inconclusive: 23.1 µM [activator, single point]
O=C(Nc1cc(S(=O)(=O)N2CCOCC2)ccc1N1CCOCC1)c1ccc(S(=O)(=O)N2CCCCC2)cc1 | inconclusive: 29.1 µM [falling, single point]
